# Measured values published in article doi:10.1101/481457.
# By UniProt entry, the sequences of proteins in these tests, tags left out. Where a name states a change or a piece, a line headed by the entry shows the natural chain unless it says otherwise. Chains listed by the source or under a name are the forms on record and can include a tag or linker. Residues count along the entry.
# UniProt Q03933: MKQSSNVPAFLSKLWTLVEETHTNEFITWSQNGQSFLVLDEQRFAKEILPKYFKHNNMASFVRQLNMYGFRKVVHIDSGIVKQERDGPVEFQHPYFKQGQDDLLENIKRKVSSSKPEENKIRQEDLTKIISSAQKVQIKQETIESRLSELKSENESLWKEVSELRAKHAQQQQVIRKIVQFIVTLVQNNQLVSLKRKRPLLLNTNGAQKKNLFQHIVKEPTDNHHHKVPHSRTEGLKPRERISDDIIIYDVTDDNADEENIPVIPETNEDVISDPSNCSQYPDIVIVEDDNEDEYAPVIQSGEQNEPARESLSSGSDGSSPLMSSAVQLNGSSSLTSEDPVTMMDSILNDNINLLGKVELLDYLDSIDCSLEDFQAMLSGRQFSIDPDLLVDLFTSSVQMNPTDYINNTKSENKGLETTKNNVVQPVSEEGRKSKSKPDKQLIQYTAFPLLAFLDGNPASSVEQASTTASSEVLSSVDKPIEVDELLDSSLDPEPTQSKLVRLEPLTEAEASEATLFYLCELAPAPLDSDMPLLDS
# UniProt Q13547: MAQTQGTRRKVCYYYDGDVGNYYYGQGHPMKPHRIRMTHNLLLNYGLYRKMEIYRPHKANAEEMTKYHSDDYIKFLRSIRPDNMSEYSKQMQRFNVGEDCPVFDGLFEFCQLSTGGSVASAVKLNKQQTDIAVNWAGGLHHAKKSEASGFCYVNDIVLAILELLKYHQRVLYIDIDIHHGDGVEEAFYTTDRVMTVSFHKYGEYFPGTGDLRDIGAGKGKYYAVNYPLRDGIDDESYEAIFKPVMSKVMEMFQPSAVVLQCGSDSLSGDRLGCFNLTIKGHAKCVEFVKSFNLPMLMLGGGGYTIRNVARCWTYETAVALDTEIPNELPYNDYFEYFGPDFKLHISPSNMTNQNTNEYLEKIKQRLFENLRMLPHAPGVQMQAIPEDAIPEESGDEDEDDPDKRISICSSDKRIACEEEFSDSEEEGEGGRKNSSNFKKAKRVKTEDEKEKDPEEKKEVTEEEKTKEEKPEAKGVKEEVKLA
# UniProt Q92793: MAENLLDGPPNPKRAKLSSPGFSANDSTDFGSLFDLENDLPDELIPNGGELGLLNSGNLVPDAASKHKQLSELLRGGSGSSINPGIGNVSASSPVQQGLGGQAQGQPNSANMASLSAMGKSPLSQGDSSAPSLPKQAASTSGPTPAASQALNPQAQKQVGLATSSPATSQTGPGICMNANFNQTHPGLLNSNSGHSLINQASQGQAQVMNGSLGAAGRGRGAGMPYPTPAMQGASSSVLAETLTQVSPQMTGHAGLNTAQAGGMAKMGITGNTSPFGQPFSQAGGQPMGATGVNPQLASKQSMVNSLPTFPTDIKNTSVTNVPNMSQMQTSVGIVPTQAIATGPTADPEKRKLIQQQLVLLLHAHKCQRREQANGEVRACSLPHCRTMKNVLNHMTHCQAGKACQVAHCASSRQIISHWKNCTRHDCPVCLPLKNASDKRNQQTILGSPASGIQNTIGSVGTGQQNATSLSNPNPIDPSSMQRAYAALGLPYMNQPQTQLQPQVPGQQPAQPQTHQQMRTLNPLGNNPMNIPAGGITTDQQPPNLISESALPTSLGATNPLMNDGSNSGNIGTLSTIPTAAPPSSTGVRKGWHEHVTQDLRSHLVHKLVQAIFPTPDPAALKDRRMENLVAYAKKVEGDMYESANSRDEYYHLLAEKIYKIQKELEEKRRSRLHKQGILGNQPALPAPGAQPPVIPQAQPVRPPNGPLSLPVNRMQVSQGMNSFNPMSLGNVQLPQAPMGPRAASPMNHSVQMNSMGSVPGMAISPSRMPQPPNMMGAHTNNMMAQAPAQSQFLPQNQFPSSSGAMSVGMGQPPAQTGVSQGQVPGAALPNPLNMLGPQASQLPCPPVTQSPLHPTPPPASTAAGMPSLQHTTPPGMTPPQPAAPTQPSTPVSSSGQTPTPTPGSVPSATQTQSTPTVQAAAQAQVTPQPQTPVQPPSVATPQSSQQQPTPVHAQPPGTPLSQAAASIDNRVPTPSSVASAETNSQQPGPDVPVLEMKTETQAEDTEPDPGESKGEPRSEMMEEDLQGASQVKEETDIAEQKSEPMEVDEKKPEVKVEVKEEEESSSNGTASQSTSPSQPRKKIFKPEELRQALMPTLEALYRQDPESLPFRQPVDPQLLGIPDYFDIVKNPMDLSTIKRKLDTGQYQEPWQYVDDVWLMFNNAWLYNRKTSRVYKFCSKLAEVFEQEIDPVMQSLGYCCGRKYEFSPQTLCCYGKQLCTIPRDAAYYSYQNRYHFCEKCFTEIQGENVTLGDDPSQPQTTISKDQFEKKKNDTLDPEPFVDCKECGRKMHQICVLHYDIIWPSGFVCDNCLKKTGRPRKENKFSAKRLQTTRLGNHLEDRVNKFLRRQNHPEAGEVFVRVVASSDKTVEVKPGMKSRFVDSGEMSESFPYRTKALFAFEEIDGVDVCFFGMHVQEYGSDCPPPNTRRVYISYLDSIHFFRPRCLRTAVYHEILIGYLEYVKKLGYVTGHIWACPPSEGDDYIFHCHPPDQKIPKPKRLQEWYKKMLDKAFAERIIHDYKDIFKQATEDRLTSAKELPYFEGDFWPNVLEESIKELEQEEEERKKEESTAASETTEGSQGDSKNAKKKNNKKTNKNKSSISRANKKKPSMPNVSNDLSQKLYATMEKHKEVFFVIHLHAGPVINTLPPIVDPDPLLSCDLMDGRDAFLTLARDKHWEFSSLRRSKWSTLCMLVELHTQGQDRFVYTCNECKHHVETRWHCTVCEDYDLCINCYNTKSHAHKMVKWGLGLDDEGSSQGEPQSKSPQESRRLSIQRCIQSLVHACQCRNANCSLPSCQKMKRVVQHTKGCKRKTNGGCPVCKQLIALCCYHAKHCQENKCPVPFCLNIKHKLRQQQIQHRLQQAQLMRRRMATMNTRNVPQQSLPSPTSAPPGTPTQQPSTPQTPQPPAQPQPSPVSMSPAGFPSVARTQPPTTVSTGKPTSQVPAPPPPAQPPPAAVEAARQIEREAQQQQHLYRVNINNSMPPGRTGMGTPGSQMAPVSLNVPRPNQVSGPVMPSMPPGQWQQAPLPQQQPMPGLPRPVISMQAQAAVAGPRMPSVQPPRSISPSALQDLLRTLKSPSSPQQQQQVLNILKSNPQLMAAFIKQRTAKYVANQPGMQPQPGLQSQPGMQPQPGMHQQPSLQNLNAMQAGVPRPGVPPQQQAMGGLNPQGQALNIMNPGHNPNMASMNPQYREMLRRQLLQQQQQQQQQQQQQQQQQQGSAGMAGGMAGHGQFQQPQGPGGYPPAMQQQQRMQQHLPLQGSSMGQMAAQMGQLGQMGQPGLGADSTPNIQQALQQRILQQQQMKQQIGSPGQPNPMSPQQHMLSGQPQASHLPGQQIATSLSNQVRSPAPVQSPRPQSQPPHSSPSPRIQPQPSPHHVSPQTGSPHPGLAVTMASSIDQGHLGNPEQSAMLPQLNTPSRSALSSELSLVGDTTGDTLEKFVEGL
# KIX-GST, wild type (KIX domain of CBP): residues 587-666 of Q92793
# UniProt P0DMV8: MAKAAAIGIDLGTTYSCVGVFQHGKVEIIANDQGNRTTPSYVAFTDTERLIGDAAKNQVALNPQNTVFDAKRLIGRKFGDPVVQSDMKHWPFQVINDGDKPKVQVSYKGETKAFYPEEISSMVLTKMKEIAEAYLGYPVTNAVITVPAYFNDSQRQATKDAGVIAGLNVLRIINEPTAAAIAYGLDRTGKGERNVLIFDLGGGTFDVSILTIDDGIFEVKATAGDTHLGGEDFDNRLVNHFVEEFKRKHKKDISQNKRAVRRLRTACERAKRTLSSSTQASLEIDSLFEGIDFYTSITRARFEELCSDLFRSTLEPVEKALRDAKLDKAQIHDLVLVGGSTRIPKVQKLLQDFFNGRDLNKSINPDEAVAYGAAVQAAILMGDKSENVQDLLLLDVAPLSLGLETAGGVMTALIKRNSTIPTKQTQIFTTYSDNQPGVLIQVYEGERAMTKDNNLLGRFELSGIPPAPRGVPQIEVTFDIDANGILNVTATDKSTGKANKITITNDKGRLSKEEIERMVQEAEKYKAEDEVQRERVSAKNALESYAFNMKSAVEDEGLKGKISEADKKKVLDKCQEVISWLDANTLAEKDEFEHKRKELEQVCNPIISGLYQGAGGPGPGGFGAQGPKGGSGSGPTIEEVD
# CBP Bromodomain, 6His-tagged (P45481, residues 1096-1205): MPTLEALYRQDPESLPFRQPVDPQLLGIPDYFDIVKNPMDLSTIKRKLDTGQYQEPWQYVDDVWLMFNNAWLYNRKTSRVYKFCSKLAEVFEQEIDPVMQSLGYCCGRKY
# CBP RING domain, 6His-tagged (P45481, residues 1205-1279): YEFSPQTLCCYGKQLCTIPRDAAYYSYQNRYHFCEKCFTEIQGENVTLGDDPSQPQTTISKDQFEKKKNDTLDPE
# CBP PHD domain, 6His-tagged (P45481, residues 1280-1321): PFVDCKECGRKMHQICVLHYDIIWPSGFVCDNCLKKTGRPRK
# CBP HAT domain, 6His-tagged (P45481, residues 1322-1700): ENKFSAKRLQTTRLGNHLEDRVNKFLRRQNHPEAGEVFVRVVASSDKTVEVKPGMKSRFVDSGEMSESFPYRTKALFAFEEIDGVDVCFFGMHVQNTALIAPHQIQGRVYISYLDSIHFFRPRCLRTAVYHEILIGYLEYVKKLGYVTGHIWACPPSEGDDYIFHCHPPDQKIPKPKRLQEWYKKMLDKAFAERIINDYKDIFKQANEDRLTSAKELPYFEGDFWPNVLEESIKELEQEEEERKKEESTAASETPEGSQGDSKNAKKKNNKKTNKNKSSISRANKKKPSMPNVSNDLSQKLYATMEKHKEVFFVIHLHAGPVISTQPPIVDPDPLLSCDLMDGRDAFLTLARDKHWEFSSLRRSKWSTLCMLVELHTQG
# Results are given in words; binding and its absence hold for the method and conditions named. For part of these data: In cells and extracts the contact can be indirect. Some results given as binding are weak or reduced against the parent protein; the word gives no strength.
# Key:
# [1] = biological target: biotinylated recombinant full-length HSF2 (UniProt Q03933); experiment: BLI
# human HSF2-YFP (human) = human HSF2-YFP (human) (UniProt Q03933); experiment: co-IP
# HDAC1-GFP = HDAC1-GFP (UniProt Q13547); experiment: co-IP
# [2] = biological target: KIX-GST, wild type (KIX domain of CBP) (UniProt Q92793); experiment: co-IP
binding [1],Substance,also measured
binds,HSP70 (from UniProt P0DMV8 1-641),
no binding (tested: 100 nM),"CBP HAT domain, 6His-tagged (from UniProt P45481 1322-1700) (domain or fragment)",
binds,"CBP PHD domain, 6His-tagged (from UniProt P45481 1280-1321) (domain or fragment)",
,EP300-HA (from UniProt Q09472 1-2414),binding (human HSF2-YFP (human)): binds
no binding (tested: 100 nM),"CBP Bromodomain, 6His-tagged (from UniProt P45481 1096-1205) (domain or fragment)",
,CBP-HA (from UniProt Q92793 1-2442),binding (human HSF2-YFP (human)): binds
,human HSF2-Myc (from UniProt Q03933 1-536),binding (HDAC1-GFP): binds
,"SNAP-HSF2 (human HSF2-Snap, wild type) (from UniProt Q03933 1-536)",binding [2]: binds
no binding (tested: 100 nM),"CBP RING domain, 6His-tagged (from UniProt P45481 1205-1279) (domain or fragment)",
